Experimental data from PMC5415106.

Biological target: T1, Dpb11-m1,2,3,5-ΔC K463E,K469E,R538E,K549E (Saccharomyces cerevisiae (budding yeast)) (UniProt P47027)
T1 sequence (looked up, limits assumed): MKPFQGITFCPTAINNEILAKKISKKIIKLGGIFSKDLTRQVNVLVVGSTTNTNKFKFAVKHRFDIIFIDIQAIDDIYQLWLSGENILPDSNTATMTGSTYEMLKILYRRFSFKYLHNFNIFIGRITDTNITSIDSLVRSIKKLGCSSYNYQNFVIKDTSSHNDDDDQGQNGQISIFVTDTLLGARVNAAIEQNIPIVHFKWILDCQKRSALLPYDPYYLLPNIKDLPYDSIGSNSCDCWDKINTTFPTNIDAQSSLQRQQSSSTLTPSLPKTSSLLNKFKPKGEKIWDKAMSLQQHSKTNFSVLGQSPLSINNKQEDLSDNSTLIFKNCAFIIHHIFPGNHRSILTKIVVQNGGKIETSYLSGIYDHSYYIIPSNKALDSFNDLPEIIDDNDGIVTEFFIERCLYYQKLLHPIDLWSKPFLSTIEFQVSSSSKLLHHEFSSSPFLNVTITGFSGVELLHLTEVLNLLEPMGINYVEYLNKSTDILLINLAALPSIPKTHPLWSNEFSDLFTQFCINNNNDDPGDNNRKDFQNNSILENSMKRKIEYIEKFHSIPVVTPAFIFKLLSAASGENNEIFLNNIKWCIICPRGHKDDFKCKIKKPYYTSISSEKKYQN
Experiment: EMSA
Details: no shift up to 320 nM, EMSA: 1 nM 32P-DNA, 20 mM Tris-HCl pH 7.5, 0.1 mM EDTA, 0.2 mM DTT, 10% glycerol, 5 min at 30 C, 0.7% native agarose in 0.5x TBE, recombinant protein, label: 32P

Sequence	half-maximal binding (folded or branched DNA)	other results
TTTTTTTTTTTTTTTTTTTTTTTTTTTTTTTTTTTTTTTTTTTTTTTTTTTTTTTTTTTTTTTTTTTTTTTTTTTTTTTT [ssDNA (dT80)]		half-maximal binding (single-stranded DNA): > 320 nM
ATGTCCTAGCAAGCCAGAATTCGGCAGCGTCTTTTTTTTTTTTTTTTTTTTTTTTTTTTTTTTTTTTTTTTTTTTTTTTTTTTTTTTTTTTTTTTTTTTTTTTTTTTTTTT / TTTTTTTTTTTTTTTTTTTTTTTTTTTTTTTTTTTTTTTTTTTTTTTTTTTTTTTTTTTTTTTTTTTTTTTTTTTTTTTTGACGCTGCCGAATTCTGGCTTGCTAGGACAT [fork DNA]	> 320 nM	
ATGTCCTAGCAAGCCAGAATTCGGCAGCGTCTTTTTTTTTTTTTTTTTTTTTTTTTTTTTTTTTTTTTTTTTTTTTTTTTTTTTTTTTTTTTTTTTTTTTTTTTTTTTTTTCCACGTCGGCGTCGCCACGAGC / GCTCGTGGCGACGCCGACGTGGTTTTTTTTTTTTTTTTTTTTTTTTTTTTTTTTTTTTTTTTTTTTTTTTTTTTTTTTTTTTTTTTTTTTTTTTTTTTTTTTGACGCTGCCGAATTCTGGCTTGCTAGGACAT [bubble DNA]	> 320 nM	
ATGTCCTAGCAAGCCAGAATTCGGCAGCGTC (double strand) [blunt dsDNA]		half-maximal binding: > 320 nM

Protein sequences can lack the tags named with them.
